This is an account of results in PubChem BioAssay AID463205 (Broad Institute, 2010).

SMILES strings stand for the structures. Screen size: about 2,400 compounds; about 20 (0.8%) were called active.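 How the source made its calls: active means AC50 no more than ten times the highest tested concentration, or full inhibition at every dose giving a flat fit (cut at about 30 µM in these data); inconclusive means flat fit with activity between 30% and 70%, or poor-quality invalid fit; inactive means AC50 more than ten times the top tested dose.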 The list shows a part of the results. Bounds are passed on as bounds.

The assay in a line: inhibitors of ADP-Glo detection reagents, dose response, artefact control for GSK-3a inhibitor project, biochemical, luminescence, cell-free, homogeneous (AID 463205).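 Further: kinase-free counter-screen against the ADP-Glo detection reagents only; potency is for inhibitors that reduce the luminescence signal.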 Conditions: 5 uM ADP.
As to `Cc1ccc(O)c(C(=O)c2coc(=N)c(C(=O)NC(C)C)c2)c1`, the AC50 was inactive: > 30 µM.
Regarding `COc1cc(/C=C/c2nc(N)nc(-c3ccccc3O)n2)cc(OC)c1OC`, the AC50 was inactive: > 30 µM.
As for `Cc1ccc(C2CC(=O)N3CN(c4ccc(Br)cc4)CSC3=C2C#N)o1` (centres undefined), the figure is inactive: > 30 µM; as for `COc1cc(/C=N/n2nnnc2N)ccc1OCC#N`, inactive: > 30 µM.
As to `Clc1ccc(Nc2nc(NCCN3CCOCC3)nc(N3CCOCC3)n2)cc1`, the AC50 is inactive: > 30 µM.
As for `CCCCOC(=O)n1ccc(C(=O)Nc2ccccc2OC)n1`, the figure is inactive: > 30 µM; as for `COc1ccc(NC(=O)c2nnn(Cc3cccc(F)c3)c2N)c(OC)c1`, inactive: > 30 µM.
As for `O=C(Nc1ccccc1C(=O)NC1CCCCC1)c1ccco1`, the figure is inactive: > 30 µM; as for `c1ccc(N2CCN(c3nc4ccccc4n4cnnc34)CC2)cc1`, inactive: > 30 µM.
As for `Cc1ccc(-c2nnc3n2N=C(c2ccccc2Br)CS3)cc1`, the figure is inactive: > 30 µM; as for `COc1ccc(-n2c(NC(=O)c3ccco3)c(C#N)c3nc4ccccc4nc32)cc1`, inactive: > 30 µM; as for `CC(C)=CC(=O)NCc1c(Cl)cccc1-n1cccc1`, inactive: > 30 µM.
Regarding `Nc1nonc1-n1nnc(C(=O)N/N=C/c2cccnc2)c1-c1cccs1`, the AC50 is inactive: > 30 µM.
As for `COc1ccc(NC(=O)Nc2ccc(Br)c(C)c2)cc1`, the figure is inactive: > 30 µM.
As for `O=C(Nc1ccccc1-c1nnc(SCc2ccccc2)o1)c1ccccc1`, the AC50 is inactive: > 30 µM.
In the case of `Cc1ccnc(NC(=O)CCC(=O)N(CC(=O)NCc2ccc(F)cc2)Cc2ccccc2)c1` it was inactive: > 30 µM.
As for `O=C(COC(=O)C1CCC1)c1c[nH]c2ccccc12`, the figure is inactive: > 30 µM; as for `O=C(COC(=O)c1ccccc1)Nc1ncc([N+](=O)[O-])s1`, inactive: > 30 µM.
As for `CCN1CCN(Cc2c(O)ccc3c2O/C(=C\c2ccccc2)C3=O)CC1`, the figure is inactive: > 30 µM; as for `Nc1nc(NCCO)nc(N2CCCCCC2)c1[N+](=O)[O-]`, inactive: > 30 µM; as for `Fc1cccc(/C=N/Nc2ccc3ccccc3n2)c1`, inactive: > 30 µM.
Regarding `CC(=O)Nc1ccc(Oc2ccc3c(c2)C(=O)NC3=O)cc1`, the AC50 was inactive: > 30 µM.
In the case of `O=C(O)c1ccc(Cl)c(NC(=O)C2CCCN2S(=O)(=O)c2cccc3nsnc23)c1` (centres undefined) it was inactive: > 30 µM; in that of `OCC1OC(n2cnc3c(NCCc4ccccc4)ncnc32)C(O)C1O` (centres undefined), inactive: > 30 µM; in that of `Cn1nnnc1SCC(=O)Nc1nn(-c2ccccc2)nc1C(N)=O`, inactive: > 30 µM.
As for `CCn1c(SCC(=O)Nc2ccc(C)cc2)nnc1-c1ccc(O)cc1`, the figure is inactive: > 30 µM; as for `COc1ccc(CCNC(=O)CSc2nc3[nH]ncc3c(=O)n2-c2ccccc2OC)cc1OC`, inactive: > 30 µM; as for `COc1ccc(N=c2oc3c(OC)cccc3cc2C(=O)NCc2ccco2)c(OC)c1`, inactive: > 30 µM.
In the case of `Cn1cc(C(=O)c2cccc(Cl)c2)cc1/C=N\O` it was inactive: > 30 µM.
Consider `Clc1ccc(C2=Nn3c(nnc3-c3cccs3)SC2)cc1`, for which the AC50 is inactive: > 30 µM.
As for `O=C(CSc1nnc(SCc2ccc(Cl)cc2)s1)N/N=C/c1ccccc1C(=O)O`, the figure is inactive: > 30 µM.
In the case of `c1nc(N2CCCCCC2)c2[nH]cnc2n1` it was inactive: > 30 µM; in that of `Cc1cc(C)nc(NS(=O)(=O)c2cccs2)c1`, inactive: > 30 µM.
In the case of `CC1(C)CC(=O)C(C(C2=C(O)CC(C)(C)CC2=O)c2ccco2)C(=O)C1` (centres undefined) it was inactive: > 30 µM; in that of `COc1ccc(CCNc2nc(C)cc(C)n2)cc1OC`, inactive: > 30 µM.
With `COc1ccc(/C=N\NC(=O)c2ccccc2Br)cc1COc1ccccc1`, the AC50 was inactive: > 30 µM.
As for `COc1ccc(CC(=O)Oc2cc(C)ccc2C)cc1`, the figure is inactive: > 30 µM; as for `CSc1ccc(-c2cc(=O)c3ccccc3o2)cc1`, inactive: > 30 µM.
In the case of `COc1cccc(/C=N/NC(=O)c2nnn(-c3nonc3N)c2-c2cccs2)c1` it was inactive: > 30 µM; in that of `NC(=O)c1ccc(NCCCN2CCOCC2)c([N+](=O)[O-])c1`, inactive: > 30 µM.
In the case of `O=C(c1ccc2c3n(nc2c1)-c1ccc(Cl)cc1CO3)N1CCOCC1` it was inactive: > 30 µM; in that of `CC(C)NC(=O)Nc1cccc(Cl)c1`, inactive: > 30 µM; in that of `CCOC(=O)C1CCN(c2c(C(=O)c3ccccc3)cnc3ccc(CC)cc23)CC1`, inactive: > 30 µM.
On to `COc1ccc(Nc2nc(N)nc(COc3ccc(OC)cc3)n2)cc1`, for which the AC50 was inactive: > 30 µM.
For `Oc1ccc(-c2nc3ncccn3c2Nc2ccc3c(c2)OCCO3)cc1`, the AC50 is inactive: > 30 µM.
As for `COc1ccc(-n2c(SCC(N)=O)nnc2-c2ccco2)cc1`, the figure is inactive: > 30 µM; as for `N#Cc1cc(Cl)c(NCC2CCCO2)cc1C#N` (centres undefined), inactive: > 30 µM; as for `Cn1cnc(C(=O)NC2CCN(C(=O)OC(C)(C)C)CC2)c1C(=O)NC1CCN(C(=O)OC(C)(C)C)CC1`, inactive: > 30 µM.
As for `COc1ccc(NC(=O)CN(C)S(=O)(=O)c2cnc[nH]2)cc1`, the figure is inactive: > 30 µM; as for `CC(/C=N/NC(=O)c1nnn(-c2nonc2N)c1C(C)C)=C\c1ccccc1`, inactive: > 30 µM.
For the molecule `O=c1[nH]c2c(s1)C(c1ccccc1)C1C3CCC(C3)C1S2` (centres undefined), the AC50 was inactive: > 30 µM.
In the case of `N#C/C(=N\Nc1ccc(Cl)cc1)C(N)=S` it was inactive: > 30 µM; in that of `CCCCNc1nc(N)nc(-c2cc(Cl)ccc2O)n1`, inactive: > 30 µM.
As for `COc1c2ccccc2c(OC)c2ccccc12`, the figure is inactive: > 30 µM; as for `CCN(CC)Cc1c(C(=O)N/N=C(\C)c2ccncc2)nnn1-c1nonc1N`, inactive: > 30 µM; as for `COc1ccc2c3c(cccc13)C(=O)CC2`, inactive: > 30 µM.
`COc1cccc(NC(=O)CN(C)C(=O)C23CC4CC(CC(Cl)(C4)C2)C3)c1`: the AC50 is inactive: > 30 µM.
As for `COc1ccc(C(=O)NC(=O)CSc2nnc(-c3ccco3)n2-c2ccccc2)cc1`, the figure is inactive: > 30 µM.
In the case of `COc1ccc(COC(=O)C2=C(C)NC(=O)NC2c2cccc(OC)c2OC)cc1` (centres undefined) it was inactive: > 30 µM; in that of `COc1cc(/C=N/Nc2nc(=O)[nH]nc2C)cc([N+](=O)[O-])c1O`, inactive: > 30 µM.
In the case of `S=C(NCc1ccc2c(c1)OCO2)NCc1ccc2c(c1)OCO2` it was inactive: > 30 µM.
Take `COc1ccc(NC(=O)c2ccc(NCC3CCCO3)c([N+](=O)[O-])c2)cc1` (centres undefined): the AC50 is inactive: > 30 µM.
As for `Cc1nnc(SCC(=O)N(C(C)C)C(C)C)nc1C`, the figure is inactive: > 30 µM; as for `O=[N+]([O-])c1ccc(O)c(CN2CCCCCC2)c1`, inactive: > 30 µM; as for `COc1ccc(Cl)cc1Nc1nc(N)c2ccccc2n1`, inactive: > 30 µM.
As for `O=C(Nc1nc2c(s1)CCCC2)c1ccc(Br)o1`, the figure is inactive: > 30 µM.
As for `Nc1nc(NCCc2ccccc2)nc(NCc2ccccc2)c1[N+](=O)[O-]`, the figure is inactive: > 30 µM; as for `Cc1onc(-c2ccccc2Cl)c1C(=O)Nc1cccc(-c2cn3cccnc3n2)c1`, inactive: > 30 µM.
Consider `CC1(C)CC(=O)C(C(C2=C(O)CC(C)(C)CC2=O)c2cccc(O)c2)C(=O)C1` (centres undefined), for which the AC50 was inactive: > 30 µM.
Turning to `O=c1ccc2ccccc2o1`, the AC50 is inactive: > 30 µM.
As for `CCCC(=O)NC(=S)Nc1cccc(C(C)=O)c1`, the figure is inactive: > 30 µM; as for `Cc1csc(NC(=O)C2CC(=O)N(c3ccc4c(c3)OCCO4)C2)n1` (centres undefined), inactive: > 30 µM.
As for `COC(=O)[C@@H](NC(=O)NCc1ccc(F)cc1)C(C)C`, the figure is inactive: > 30 µM; as for `Cc1onc(-c2ccccc2)c1C(=O)NCCN1CCOCC1`, inactive: > 30 µM; as for `CCOC(=O)c1nc2sc3c(c2c(=O)[nH]1)CCC(C)C3` (centres undefined), inactive: > 30 µM.
As for `CCCCn1c(SCC(=O)Nc2sc3c(c2C(N)=O)CCC3)nnc1-c1ccccc1`, the figure is inactive: > 30 µM; as for `CN1CCN(c2nc(NCc3ccco3)nc(N)c2[N+](=O)[O-])CC1`, inactive: > 30 µM; as for `Nc1nc(NCc2ccccc2)nc(NCc2ccccc2)c1[N+](=O)[O-]`, inactive: > 30 µM.
As for `CC(C)N=C(NC#N)SCc1ccc(Br)cc1`, the AC50 is inactive: > 30 µM.
As for `CCOC(=O)c1[nH]c2c(c1-c1ccccc1)C(=O)CC(c1ccc(OCC)cc1)C2` (centres undefined), the figure is inactive: > 30 µM; as for `O=c1c2ccccc2[nH]c2ccc(O)cc12`, inactive: > 30 µM; as for `CCOC(=O)C1=C(CC)OC(N)=C(C#N)C1c1ccc(NC(C)=O)cc1` (centres undefined), inactive: > 30 µM.
As for `COC(=O)CCCNc1ncccc1[N+](=O)[O-]`, the figure is inactive: > 30 µM; as for `Cc1[nH]nc2c1-c1nc3ccccc3nc1C(C)(C)C2`, inactive: > 30 µM; as for `Cc1cccc(OCC(=O)Nc2ccc3c(c2)C(=O)NC3=O)c1`, inactive: > 30 µM.
As for `Nc1nc(NCCOCCO)nc(N2CCCCCC2)c1[N+](=O)[O-]`, the figure is inactive: > 30 µM; as for `Fc1cccc(/C=N/Nc2ccccn2)c1`, inactive: > 30 µM.
On to `CCOC(=O)C1CCCN(c2c(C(=O)c3ccccc3)cnc3ccccc23)C1` (centres undefined), for which the AC50 is inactive: > 30 µM.
In the case of `CCNc1ccccc(C(=O)/C=C/c2ccc3c(c2)OCO3)c1=O` it was inactive: > 30 µM.
In the case of `Clc1cccc(Nc2ncnc3c2cnn3-c2ccccc2)c1` it was inactive: > 30 µM; in that of `CCc1ccc(/C=c2\s/c(=C\C(=O)C(C)(C)C)[nH]c2=O)cc1`, inactive: > 30 µM; in that of `CCOC(=O)c1c(-c2cccc([N+](=O)[O-])c2)csc1N`, inactive: > 30 µM.
In the case of `Cc1cc(C)c(NC(=O)C2CCCN2CCOC(=O)c2cccc([N+](=O)[O-])c2)c(C)c1` (centres undefined) it was inactive: > 30 µM; in that of `CCOc1cccc(-c2c(C(=O)N/N=C(\C)c3ccccn3)nnn2-c2nonc2N)c1`, inactive: > 30 µM.
